The target of assay [1] is cell surface ALK on neuroblastoma cells (IMR32, SY5Y-D3, SY5Y) (human) (UniProt Q9UM73). The assay is described as follows: flow cytometry, 1 uM VH20, anti-Flag-PE detection. On the technique in general: Flow cytometry measures light scatter and fluorescence of single cells or particles in a stream.
Assay [2] addresses ALK extracellular domain expressed on the cell surface of 293T cells (293T-ALK) (Homo sapiens, UniProt Q9UM73). The assay is described as follows: flow cytometry, 1 uM VH on 293T-ALK cells, anti-FLAG-PE detection.

By UniProt entry, the sequences of proteins in these tests, tags left out. Where a name states a change or a piece, a line headed by the entry shows the natural chain unless it says otherwise.
UniProt Q9UM73: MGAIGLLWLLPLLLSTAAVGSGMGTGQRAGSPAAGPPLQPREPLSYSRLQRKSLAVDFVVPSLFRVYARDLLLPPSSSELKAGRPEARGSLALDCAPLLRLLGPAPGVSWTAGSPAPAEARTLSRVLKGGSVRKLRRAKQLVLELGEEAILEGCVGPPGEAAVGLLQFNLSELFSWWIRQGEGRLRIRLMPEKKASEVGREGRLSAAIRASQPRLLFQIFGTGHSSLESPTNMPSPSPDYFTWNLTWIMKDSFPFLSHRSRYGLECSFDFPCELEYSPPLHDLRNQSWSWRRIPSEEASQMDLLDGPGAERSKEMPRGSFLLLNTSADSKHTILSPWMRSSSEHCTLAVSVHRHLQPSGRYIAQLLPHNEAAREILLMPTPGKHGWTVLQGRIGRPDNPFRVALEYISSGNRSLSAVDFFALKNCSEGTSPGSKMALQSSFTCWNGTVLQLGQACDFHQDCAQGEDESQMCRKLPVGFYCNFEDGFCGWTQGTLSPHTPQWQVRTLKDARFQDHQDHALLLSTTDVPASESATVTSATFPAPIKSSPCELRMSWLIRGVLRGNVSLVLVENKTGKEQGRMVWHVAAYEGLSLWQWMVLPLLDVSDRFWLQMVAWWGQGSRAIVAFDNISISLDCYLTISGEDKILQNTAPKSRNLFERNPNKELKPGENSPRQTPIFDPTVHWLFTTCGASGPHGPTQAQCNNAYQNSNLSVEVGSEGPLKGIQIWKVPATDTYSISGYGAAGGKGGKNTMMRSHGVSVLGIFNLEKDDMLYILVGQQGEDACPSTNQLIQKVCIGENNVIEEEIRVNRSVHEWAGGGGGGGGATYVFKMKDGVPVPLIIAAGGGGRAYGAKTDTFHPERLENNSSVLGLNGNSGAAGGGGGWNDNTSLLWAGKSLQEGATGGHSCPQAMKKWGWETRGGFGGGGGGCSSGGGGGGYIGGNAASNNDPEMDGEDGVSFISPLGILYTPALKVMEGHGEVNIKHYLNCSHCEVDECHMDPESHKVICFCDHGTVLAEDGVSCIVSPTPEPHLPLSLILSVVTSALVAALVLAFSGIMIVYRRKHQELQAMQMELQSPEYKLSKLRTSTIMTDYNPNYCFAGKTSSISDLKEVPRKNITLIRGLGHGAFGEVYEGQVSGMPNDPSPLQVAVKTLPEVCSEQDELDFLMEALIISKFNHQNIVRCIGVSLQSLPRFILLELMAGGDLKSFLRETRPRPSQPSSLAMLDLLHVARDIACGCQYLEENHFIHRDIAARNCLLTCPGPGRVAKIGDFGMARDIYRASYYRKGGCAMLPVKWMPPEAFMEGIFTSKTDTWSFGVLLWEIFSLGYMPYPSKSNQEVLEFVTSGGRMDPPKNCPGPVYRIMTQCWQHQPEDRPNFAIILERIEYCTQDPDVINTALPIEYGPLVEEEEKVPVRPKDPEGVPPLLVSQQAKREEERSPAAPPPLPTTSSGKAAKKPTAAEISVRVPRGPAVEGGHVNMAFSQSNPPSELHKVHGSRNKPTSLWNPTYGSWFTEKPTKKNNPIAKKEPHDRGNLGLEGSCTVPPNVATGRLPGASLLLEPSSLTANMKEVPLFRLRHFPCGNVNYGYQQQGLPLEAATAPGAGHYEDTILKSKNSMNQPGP

Results are given in words; binding and its absence hold for the method and conditions named. Some results given as binding are weak or reduced against the parent protein; the word gives no strength.

B1: VH20 (other)
VH: EVQLVESGGGVVQPGRSLRLSCAASGFTFSSYAMHWVRQAPGKGLEWVAAIWYDGSNQYYADSVKGRFTISRDDSTNTLYLQMNSLRAEDTALYYCAKSSYYDSSGYYFPYGYWGQGTLVTVSS
notes: Single-domain antibody (isolated VH domain) found by phage panning on the ALK G-rich domain antigen; For the internalization assay it was labelled with pHrodo Deep Red dye
Consider B1, for which the binding result in assay [1] and in assay [2] was “binds” each time.

Values taken from patent US20250101134A1, “ANAPLASTIC LYMPHOMA KINASE ANTIBODIES AND METHODS OF USE THEREOF” (The Children's Hospital of Philadelphia, priority 2022, published 2025).
